Publication PMC3024417

Molecular target: T1, p120-catenin (human (endogenous in A431)) (UniProt O60716)
T1 sequence: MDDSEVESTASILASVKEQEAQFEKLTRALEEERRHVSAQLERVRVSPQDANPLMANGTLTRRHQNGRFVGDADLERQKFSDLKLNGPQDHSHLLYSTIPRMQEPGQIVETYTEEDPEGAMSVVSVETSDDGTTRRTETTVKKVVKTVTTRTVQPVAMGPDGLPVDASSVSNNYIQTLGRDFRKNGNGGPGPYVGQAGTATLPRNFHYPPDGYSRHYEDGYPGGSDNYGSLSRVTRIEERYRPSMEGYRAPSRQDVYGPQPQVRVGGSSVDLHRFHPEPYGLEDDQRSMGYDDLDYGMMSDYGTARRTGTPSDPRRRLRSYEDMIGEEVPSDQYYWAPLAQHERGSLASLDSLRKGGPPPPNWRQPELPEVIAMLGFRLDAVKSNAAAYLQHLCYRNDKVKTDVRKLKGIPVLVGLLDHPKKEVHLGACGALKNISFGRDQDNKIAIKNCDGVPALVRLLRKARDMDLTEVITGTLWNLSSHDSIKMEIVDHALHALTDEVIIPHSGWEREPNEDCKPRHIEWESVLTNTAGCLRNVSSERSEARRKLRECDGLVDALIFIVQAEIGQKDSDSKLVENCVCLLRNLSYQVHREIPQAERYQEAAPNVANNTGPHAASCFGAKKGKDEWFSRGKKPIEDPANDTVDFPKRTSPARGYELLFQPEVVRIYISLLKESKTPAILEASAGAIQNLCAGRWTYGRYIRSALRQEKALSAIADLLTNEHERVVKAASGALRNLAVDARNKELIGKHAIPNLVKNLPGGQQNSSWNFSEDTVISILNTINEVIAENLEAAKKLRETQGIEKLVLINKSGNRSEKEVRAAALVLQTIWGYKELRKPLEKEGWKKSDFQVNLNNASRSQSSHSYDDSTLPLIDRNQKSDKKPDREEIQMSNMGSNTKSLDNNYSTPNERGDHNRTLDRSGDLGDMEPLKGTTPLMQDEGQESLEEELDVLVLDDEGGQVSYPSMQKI
Assay: cross-linking + co-IP; ReCLIP: A431 cells crosslinked with 0.5 mM DSP, DTME or both, RIPA lysis; p120 captured on mAb 15D2 covalently bound to Protein G Dynabeads, 5 RIPA washes; partners eluted with 50 mM DTT (30 min, 37°C); Western blot of the eluate; control mAb 8D11 beads

binding: binds
Substance: E-cadherin (human (endogenous in A431))

No constants are given. Whether binding was seen depends on the method and setting. In cells and extracts the contact can be indirect. Binding calls can cover weak binding; strength is not graded here.
